Primary screen of a compound library

Protein sequences, listed by entry. Tags and fused reporters are not part of them. Residues count along the entry.
UniProt P9WPC5, whole entry: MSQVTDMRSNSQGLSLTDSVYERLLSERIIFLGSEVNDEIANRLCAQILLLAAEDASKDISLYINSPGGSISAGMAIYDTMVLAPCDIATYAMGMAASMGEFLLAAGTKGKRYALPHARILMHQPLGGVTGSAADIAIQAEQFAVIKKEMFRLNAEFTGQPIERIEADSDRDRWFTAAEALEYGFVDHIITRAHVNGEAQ
UniProt P9WPC3, whole entry partner: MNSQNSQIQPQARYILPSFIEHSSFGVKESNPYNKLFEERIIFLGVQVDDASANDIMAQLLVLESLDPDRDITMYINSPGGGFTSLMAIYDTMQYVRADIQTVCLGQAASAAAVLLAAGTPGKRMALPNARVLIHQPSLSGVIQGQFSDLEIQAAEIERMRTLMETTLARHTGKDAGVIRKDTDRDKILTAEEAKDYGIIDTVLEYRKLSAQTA
UniProt Q8IDJ8, 1-583: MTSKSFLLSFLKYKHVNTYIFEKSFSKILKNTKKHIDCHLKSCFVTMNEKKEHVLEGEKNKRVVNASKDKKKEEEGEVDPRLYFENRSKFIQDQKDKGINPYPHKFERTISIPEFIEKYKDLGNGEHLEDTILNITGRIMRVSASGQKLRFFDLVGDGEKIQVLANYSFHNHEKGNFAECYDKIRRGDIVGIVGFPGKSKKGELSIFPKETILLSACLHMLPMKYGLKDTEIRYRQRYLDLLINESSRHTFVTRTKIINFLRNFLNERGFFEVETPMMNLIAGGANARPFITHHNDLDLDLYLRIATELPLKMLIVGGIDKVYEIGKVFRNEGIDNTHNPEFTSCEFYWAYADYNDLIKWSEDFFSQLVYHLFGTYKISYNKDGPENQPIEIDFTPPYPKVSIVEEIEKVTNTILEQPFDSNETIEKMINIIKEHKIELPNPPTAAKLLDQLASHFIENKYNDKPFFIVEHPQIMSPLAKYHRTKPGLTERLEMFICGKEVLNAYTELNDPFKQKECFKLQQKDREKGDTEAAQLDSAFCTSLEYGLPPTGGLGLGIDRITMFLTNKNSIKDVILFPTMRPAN
UniProt P9WFT3, whole entry: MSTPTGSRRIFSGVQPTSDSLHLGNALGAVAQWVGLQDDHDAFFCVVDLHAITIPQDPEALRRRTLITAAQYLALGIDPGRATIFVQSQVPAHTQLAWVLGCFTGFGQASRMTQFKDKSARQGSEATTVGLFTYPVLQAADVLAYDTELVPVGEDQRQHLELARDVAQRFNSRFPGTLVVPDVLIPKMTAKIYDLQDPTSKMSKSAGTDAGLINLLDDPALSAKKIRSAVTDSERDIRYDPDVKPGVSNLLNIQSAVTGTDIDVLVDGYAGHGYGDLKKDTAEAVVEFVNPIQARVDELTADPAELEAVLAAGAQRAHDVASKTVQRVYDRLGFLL
UniProt A4I591, 1-473: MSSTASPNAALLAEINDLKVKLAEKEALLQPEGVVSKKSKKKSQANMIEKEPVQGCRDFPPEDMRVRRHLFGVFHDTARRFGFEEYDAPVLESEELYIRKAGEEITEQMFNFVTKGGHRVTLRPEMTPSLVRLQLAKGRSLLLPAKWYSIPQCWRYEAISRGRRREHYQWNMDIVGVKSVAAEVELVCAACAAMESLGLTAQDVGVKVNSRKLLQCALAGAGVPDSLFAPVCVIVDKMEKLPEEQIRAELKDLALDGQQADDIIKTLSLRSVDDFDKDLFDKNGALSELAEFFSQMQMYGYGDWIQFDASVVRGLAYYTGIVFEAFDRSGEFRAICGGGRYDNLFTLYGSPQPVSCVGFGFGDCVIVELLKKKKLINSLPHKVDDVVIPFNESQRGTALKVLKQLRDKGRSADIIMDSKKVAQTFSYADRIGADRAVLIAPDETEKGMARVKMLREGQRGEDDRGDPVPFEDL
UniProt Q4DA54, 1-478: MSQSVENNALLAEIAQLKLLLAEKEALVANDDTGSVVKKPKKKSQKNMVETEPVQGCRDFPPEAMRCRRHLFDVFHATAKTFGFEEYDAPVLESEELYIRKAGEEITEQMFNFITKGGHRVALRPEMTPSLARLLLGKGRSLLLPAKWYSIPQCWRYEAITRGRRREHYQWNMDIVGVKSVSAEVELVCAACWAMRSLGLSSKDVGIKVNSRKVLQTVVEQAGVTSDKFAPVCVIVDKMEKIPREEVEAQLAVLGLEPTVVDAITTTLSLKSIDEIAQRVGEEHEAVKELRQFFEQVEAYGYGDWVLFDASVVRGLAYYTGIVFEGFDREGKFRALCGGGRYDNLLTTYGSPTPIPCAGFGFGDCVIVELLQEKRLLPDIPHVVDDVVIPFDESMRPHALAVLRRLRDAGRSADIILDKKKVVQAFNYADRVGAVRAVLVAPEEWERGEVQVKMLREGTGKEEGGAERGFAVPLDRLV

ClpP1P2: 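Protease assay of ClpP1P2, read by the AMC dye that it sets free. Target: ClpP1P2, Mycobacterium tuberculosis (UniProt P9WPC5 and UniProt P9WPC3). Concentration: 50 µM. Direction is inferred from only a few compounds that gave an IC50; most scored high, so higher reads as stronger inhibition. Most other retested compounds had strongly negative values. Of about 69,000 compounds tested this way, about 10 (0.015%) reached 50% or more in at least one test.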
PfKRS1: 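Lysine-tRNA ligase, Plasmodium falciparum 3D7 (UniProt Q8IDJ8). Enzyme assay of the cytosolic lysyl-tRNA synthetase in 384-well plates, read by luminescence. Tested at 30 µM. Higher reads as stronger inhibition, judged from the few compounds that gave an IC50. About 69,000 compounds were tested under these conditions; 0.071% (about 49) showed 50% or more at least once.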
MtTrpRS: 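Enzyme assay of tryptophanyl-tRNA synthetase; the read-out is not stated. Target: Tryptophan-tRNA ligase, Mycobacterium tuberculosis (UniProt P9WFT3). Concentration: 10 µM. Direction is not recorded; retested compounds ran higher, which suggests that high means inhibition. About 65,000 compounds were tested under these conditions; 0.098% (about 64) showed 50% or more at least once.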
LiHisRS: 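Enzyme assay of histidyl-tRNA synthetase; the read-out is not stated. Target: Histidine-tRNA ligase, Leishmania infantum (UniProt A4I591). Compounds at 30 µM. Higher reads as stronger inhibition (inferred: compounds with an IC50 in retests scored well above the rest). The assay is labelled LdHisRS but filed under L. infantum. Size under these conditions: about 69,000 compounds, about 410 of them at 50% or above in at least one test.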
TcHisRS: 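Enzyme assay of histidyl-tRNA synthetase; the read-out is not stated. Target: Histidine-tRNA ligase, Trypanosoma cruzi CL Brener (UniProt Q4DA54). Tested at 30 µM. Direction is inferred from retests: higher values go with stronger inhibition. Of about 69,000 compounds tested this way, about 31 (0.045%) reached 50% or more in at least one test.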
Leishmania in macrophages: 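Cell assay of Leishmania donovani living inside macrophages; the read-out is not stated. Tested at 30 µM. Direction is inferred from retests: higher values go with stronger inhibition. Size under these conditions: about 69,000 compounds, about 1,000 of them at 50% or above in at least one test.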

Values are the deposited “Percent Effect”, in %. How 0% and 100% were set is not recorded. Most values in the screen are low, and negative values occur. This is an unselected part of the compounds tested. Two or more numbers in one place are separate tests of the same structure; such repeats can differ widely. A dash means the value is not listed here; it may have been measured.

| # | structure | ClpP1P2 | PfKRS1 | MtTrpRS | LiHisRS | TcHisRS | Leishmania in macrophages |
|---|---|---|---|---|---|---|---|
| 1 | `COCCCN(C(=O)c1ccc(-n2ccnc2)cc1)C1CCN(C)CC1` | 4.634 | -0.6853 | 1.235 | 4.444 | 3.571 | 4.283 |
| 2 | `O=C(O)C(F)(F)F.O=C(O)C(F)(F)F.[H][C@@]12CCN(Cc3cc(C)on3)C[C@@]1([H])O[C@@H](C(=O)Nc1cccnc1C)C2` | - | - | - | - | - | -22.35 |
| 3 | `Cc1cc(C)nc(N2CC[C@@]3(O)CCN(S(=O)(=O)N(C)C)C[C@H]3C2)n1` | -14.03 | 1.842 | 1.867 | 18 | 12.05 | - |
| 4 | `c1ccc(CN2CC[C@H]3CO[C@H](CNc4ncccn4)[C@H]3C2)nc1` | 3.368 | 2.8 | -0.3148 | 20.75 | 2.703 | - |
| 5 | `CCCNC(c1cccnc1)c1ccc(F)c(C)c1.Cl.Cl` (configuration not stated) | - | - | - | - | - | 4.911 |
| 6 | `Cc1ccc(C(CCNCCN(C)C)C2CCOC(C)(C)C2)cc1` (configuration not stated) | 1.888 | -0.1421 | -5.289 | 14.58 | 5.208 | - |
| 7 | `Cc1cnc(NC(=O)c2ccc(C3CCCN3CC(C)C)s2)s1` (configuration not stated) | 0.1748 | 1.742 | -4.509 | 1.333 | 12.14 | 20.13 |
| 8 | `CC[C@H](C)[C@H](N)C(=O)Nc1nc(-c2cnc(N(C)C)nc2)cs1` | 0.006327 | 3.024 | - | 45.71 | 11.3 | 0.09291 & 4.099 |
| 9 | `O=C(NC1CCC1)c1c2c(N3CCCC3)ncnc2n2ccccc12` | -153.6 | 7.242 | 1.744 | 18.18 | 7.438 | 30.14 |
| 10 | `COc1ccccc1CNC(C)c1ccc(-n2ccnc2)cc1.Cl` (configuration not stated) | - | - | - | - | - | -30.17 |
| 11 | `O=C(O)C1(Oc2ccc(Cl)cc2)CCN(C2CCOCC2)CC1` | 4.109 | -0.572 | 1.23 | 12.09 | 2.97 | 24.76 |
| 12 | `O=C(COc1cccnc1)N1CCOC(C(F)(F)F)C1` (configuration not stated) | -5.274 | 0.6215 | 1.12 | 15.08 | 7.059 | 7.684 |
| 13 | `O=C(Cc1cccs1)N1C[C@@H]2COC[C@]2(COc2cccnc2)C1` | 4.669 | 8.731 | -1.501 | 17.31 | 3.743 | - |
| 14 | `COc1cccc2[nH]cc(CCNC(=O)N3CCCC3CO)c12` (configuration not stated) | -4.159 | -2.664 | 11.81 | 1.587 | 7.071 | -5.751 |
| 15 | `O=c1[nH]c(COc2ccccc2Cl)nc2c1CCNC2` | 1.01 | -4.253 | 7.021 | 24.49 | 3.077 | 11.66 |
| 16 | `COCC(O)CN(C)C(=O)NCc1ccc(S(C)(=O)=O)cc1` (configuration not stated) | 5.08 | 5.251 | 3.985 | 17.28 | 0.6135 | 15.68 |
| 17 | `Cc1ccc(NC(=O)CCc2ccco2)cc1N1CCOC1=O` | 6.876 | 1.98 | 0.1211 | 7.018 | 7.563 | 14.68 |
| 18 | `O=C(N1CCC(Nc2cccnn2)CC1)C1(c2ccc(F)cc2)CC1` | -4.441 | 4.88 | 1.247 | 9.375 | 1.141 | 19.98 |
| 19 | `CCc1noc(CN(C)Cc2ccc(N3CCCCC3)cc2)n1` | -13.16 | -5.691 | 4.722 | 2.83 | 0 | 24.42 |
| 20 | `[H][C@@]12C[C@H](C(=O)Nc3cccnc3)CN(Cc3ccc(C)o3)[C@]1([H])CCO2` | - | - | - | - | - | -17.39 |
| 21 | `O=C([C@H]1CN(CCc2ccccc2)C[C@H]2OCC[C@@H]12)N1CCCO1` | 0.9101 | 3.702 | -0.7345 | 22.64 | 3.784 | - |
| 22 | `CN(C)CC(=O)N1CCc2sc(C(=O)N3CCOCC3)cc21` | 15.67 | 1.918 | - | 15.84 | 1.508 | 30.63 |
| 23 | `Cc1nc(C(=O)N2C[C@@H]3CN(S(C)(=O)=O)CCO[C@@H]3C2)cs1` | -11 | 2.475 | 1.762 | 8.772 | 5.376 | - |
| 24 | `CC(=O)N1CCOC[C@H](OCC(=O)N(C)C)C1` | -1.586 | 7.579 | -1.907 | 16.22 | 4.478 | -14.63 |
| 25 | `CN1CC2(CCCN(c3cnccn3)C2)OC1=O` (configuration not stated) | -2.202 | 4.767 | -2.773 | 12.82 | 8.046 | 8.884 |
| 26 | `CCc1nnc2n1CCN(Cc1nc(-c3ccoc3)no1)C2` | 12.39 | 3.61 | -3.192 | 4.255 | 2.29 | 30.1 |
| 27 | `Cc1nc2ccc(C(=O)N(CCC#N)CCC#N)cc2nc1C` | -0.1864 | 2.989 | -0.698 | 23.4 | 10.98 | 6.056 |
| 28 | `CN(C)C(=O)CO[C@H]1CO[C@@]2(CCN(Cc3ccoc3)C2)C1` | 2.644 | 7.051 | -0.7359 | 12 | 10.31 | 51.04 |
| 29 | `CN(C)c1nccnc1C1CCCN(c2cnccn2)C1` (configuration not stated) | -6.819 | -0.6834 | -6.38 | 5.755 | -0.3831 | 9.132 |
| 30 | `CC(O)CN1CCC(CNCc2ccc(S(C)(=O)=O)cc2)CC1` (configuration not stated) | -3.018 | 0.01159 | 0.07128 | 17.31 | -2.479 | 29.6 |
| 31 | `COCCSCC(=O)NCc1ccnc(N(C)C)c1` | -5.872 | 2.339 | 3.069 | 7.143 | 1.064 | -18.49 |
| 32 | `CC(Nc1ccc2c(c1)CCC2)c1nc(C2CC2)no1` (configuration not stated) | -5.086 | 0.7636 | -2.993 | 9.375 | 9.392 | 24.52 |
| 33 | `COCC(=O)N1CCCC1c1nc(C)c2c(n1)N(CC(C)C)C(=O)CC2` (configuration not stated) | -10.29 | 0.848 | -9.514 | 8.571 | 3.448 | 18.44 |
| 34 | `CC(C)c1ccc(CN2C(=O)C3(CCNCC3)Nc3ccccc32)cc1` | 9.098 | 5.193 | 0.5863 | 20.35 | 12 | 100.4 |
| 35 | `COc1cccc(-c2ccnc(C3CCNCC3)c2)c1` | 20.6 | 0.7296 | 5.971 | 20 | 5.97 | 15.43 & 5.295 |
| 36 | `Cc1ccoc1C(=O)N1C[C@H](OCC2CC2)[C@H]2OCCC[C@H]21` | -4.304 | 8.325 | -1.256 | 2.655 | 5.6 | - |
| 37 | `Cc1noc(C)c1CC(=O)N1CCC(Nc2cccnn2)CC1` | -25.59 | -1.475 | 15.13 | 12.5 | 2.367 | 5.932 |
| 38 | `CC(NC(=O)N1CCN(c2nccs2)CC1)c1nncn1C` (configuration not stated) | -19.74 | 1.764 | -2.086 | 13.79 | 9.04 | 14.33 |
| 39 | `O=C(NCCNc1ccc(C(F)(F)F)cn1)c1ccc(F)cc1Cl` | -45.37 | 0.9483 | -8.276 | 15.04 | 10.2 | 35.81 |

For reference, 3 entries once more:

For CN(C)c1nccnc1C1CCCN(c2cnccn2)C1 (configuration not stated) the result was ClpP1P2: -6.819%; PfKRS1: -0.6834%; MtTrpRS: -6.38%; LiHisRS: 5.755%; TcHisRS: -0.3831%; Leishmania in macrophages: 9.132%.
For Cc1cnc(NC(=O)c2ccc(C3CCCN3CC(C)C)s2)s1 (configuration not stated) the result was ClpP1P2: 0.1748%; PfKRS1: 1.742%; MtTrpRS: -4.509%; LiHisRS: 1.333%; TcHisRS: 12.14%; Leishmania in macrophages: 20.13%.
For CC[C@H](C)[C@H](N)C(=O)Nc1nc(-c2cnc(N(C)C)nc2)cs1 the result was ClpP1P2: 0.006327%; PfKRS1: 3.024%; LiHisRS: 45.71%; TcHisRS: 11.3%; Leishmania in macrophages: 0.09291% & 4.099%.

Measurements from “University of Dundee, Small-Polar-MMV Screening Library” (2021), ChEMBL document CHEMBL3988442.